Results are given in words; binding and its absence hold for the method and conditions named. Binding seen in cells or lysates may run through a third protein. Some results given as binding are weak or reduced against the parent protein; the word gives no strength. For some assays here: Tags and fused reporters may be left off the sequences shown.
B1: Flag-PGC7 (primordial germ cell 7) (protein, UniProt Q8QZY3 1-150)
chain: MEEPSEKVDPMKDPETPQKKDEEDALDDTDVLQPETLVKVMKKLTLNPGVKRSARRRSLRNRIAAVPVENKSEKIRREVQSAFPKRRVRTLLSVLKDPIAKMRRLVRIEQRQKRLEGNEFERDSEPFRCLCTFCHYQRWDPSENAKIGKN
B2: PGC7 (primordial germ cell 7), endogenous in F9 EC cells (protein, UniProt Q8QZY3 1-150)
chain: B1 chain

The chains behind the UniProt entries cited, without tags or fusion partners.
UniProt P62960: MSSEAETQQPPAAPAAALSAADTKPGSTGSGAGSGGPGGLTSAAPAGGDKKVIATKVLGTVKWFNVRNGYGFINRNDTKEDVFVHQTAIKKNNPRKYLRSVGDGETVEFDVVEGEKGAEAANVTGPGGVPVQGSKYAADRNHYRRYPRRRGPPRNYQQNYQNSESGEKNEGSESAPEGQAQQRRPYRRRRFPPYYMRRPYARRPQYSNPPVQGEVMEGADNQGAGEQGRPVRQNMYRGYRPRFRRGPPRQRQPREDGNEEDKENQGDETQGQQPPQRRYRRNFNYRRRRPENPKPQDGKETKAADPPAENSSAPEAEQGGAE

Experiments:
[1] = target: GFP-YBX1 (Y-box binding protein 1) (mouse) (UniProt P62960); assay: co-IP; HEK-293T or F9 EC cells cotransfected with p3×Flag-CMV-PGC7 and pEGFP-YBX1 for 48 h; anti-Flag or anti-GFP antibody for capture, normal mouse IgG as negative control; western blot
[2] = target: YBX1 (Y-box binding protein 1), endogenous in F9 EC cells (mouse (endogenous in F9 EC cells)) (UniProt P62960); assay: co-IP; endogenous proteins, F9 EC cells at 90% confluence; rabbit anti-YBX1 antibody for capture, rabbit IgG as negative control; western blot with PGC7-specific antibodies

| Binder | binding [1] | binding [2] |
| --- | --- | --- |
| B1 | binds |  |
| B2 |  | binds |

From PMC12536462
